Data reported in article PMC10491636.
Results are given in words; binding and its absence hold for the method and conditions named. A result given as binding can be weak or reduced; the word gives no strength. For some of these results: In cells and extracts the contact can be indirect.

By UniProt entry, the sequences of proteins in these tests, tags left out. Where a name states a change or a piece, a line headed by the entry shows the natural chain unless it says otherwise.
UniProt P16070: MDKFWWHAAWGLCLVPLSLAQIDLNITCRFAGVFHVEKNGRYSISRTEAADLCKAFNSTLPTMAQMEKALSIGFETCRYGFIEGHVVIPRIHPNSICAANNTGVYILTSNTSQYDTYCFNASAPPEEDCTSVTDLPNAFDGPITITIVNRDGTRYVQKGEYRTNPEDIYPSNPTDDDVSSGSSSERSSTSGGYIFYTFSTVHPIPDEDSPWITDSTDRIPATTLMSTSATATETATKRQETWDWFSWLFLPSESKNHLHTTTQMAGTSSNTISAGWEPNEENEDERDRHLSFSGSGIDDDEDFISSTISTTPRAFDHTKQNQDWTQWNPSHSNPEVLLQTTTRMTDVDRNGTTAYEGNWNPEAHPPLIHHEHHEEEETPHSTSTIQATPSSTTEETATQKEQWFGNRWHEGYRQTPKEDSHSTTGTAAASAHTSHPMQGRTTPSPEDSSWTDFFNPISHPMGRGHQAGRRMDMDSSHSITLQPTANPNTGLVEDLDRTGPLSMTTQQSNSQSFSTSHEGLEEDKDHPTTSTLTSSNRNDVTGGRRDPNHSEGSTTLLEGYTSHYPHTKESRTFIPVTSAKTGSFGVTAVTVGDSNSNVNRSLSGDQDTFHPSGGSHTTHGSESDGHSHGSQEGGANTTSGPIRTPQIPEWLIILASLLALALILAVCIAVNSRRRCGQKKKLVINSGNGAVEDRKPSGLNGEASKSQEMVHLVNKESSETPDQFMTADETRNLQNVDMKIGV
UniProt P40763: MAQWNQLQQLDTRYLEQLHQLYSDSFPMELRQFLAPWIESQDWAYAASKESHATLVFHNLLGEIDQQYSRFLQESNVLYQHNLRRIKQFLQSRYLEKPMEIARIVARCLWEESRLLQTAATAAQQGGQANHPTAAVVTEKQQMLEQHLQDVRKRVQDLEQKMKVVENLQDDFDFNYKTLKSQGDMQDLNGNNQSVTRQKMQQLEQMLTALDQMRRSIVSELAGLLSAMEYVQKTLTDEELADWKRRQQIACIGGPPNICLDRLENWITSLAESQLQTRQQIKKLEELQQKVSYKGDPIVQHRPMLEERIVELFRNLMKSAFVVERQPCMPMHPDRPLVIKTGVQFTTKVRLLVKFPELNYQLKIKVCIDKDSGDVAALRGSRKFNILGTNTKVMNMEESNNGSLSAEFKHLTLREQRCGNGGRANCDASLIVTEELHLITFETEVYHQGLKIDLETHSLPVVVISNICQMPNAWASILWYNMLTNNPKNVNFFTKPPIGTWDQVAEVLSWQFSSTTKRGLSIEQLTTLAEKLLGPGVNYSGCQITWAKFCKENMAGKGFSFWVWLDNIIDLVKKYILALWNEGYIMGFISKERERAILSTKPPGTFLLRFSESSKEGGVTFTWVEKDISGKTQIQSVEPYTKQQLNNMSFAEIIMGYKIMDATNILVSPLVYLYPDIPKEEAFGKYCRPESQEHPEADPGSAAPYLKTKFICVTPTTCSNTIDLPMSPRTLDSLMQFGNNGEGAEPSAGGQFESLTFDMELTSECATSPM
UniProt Q14457: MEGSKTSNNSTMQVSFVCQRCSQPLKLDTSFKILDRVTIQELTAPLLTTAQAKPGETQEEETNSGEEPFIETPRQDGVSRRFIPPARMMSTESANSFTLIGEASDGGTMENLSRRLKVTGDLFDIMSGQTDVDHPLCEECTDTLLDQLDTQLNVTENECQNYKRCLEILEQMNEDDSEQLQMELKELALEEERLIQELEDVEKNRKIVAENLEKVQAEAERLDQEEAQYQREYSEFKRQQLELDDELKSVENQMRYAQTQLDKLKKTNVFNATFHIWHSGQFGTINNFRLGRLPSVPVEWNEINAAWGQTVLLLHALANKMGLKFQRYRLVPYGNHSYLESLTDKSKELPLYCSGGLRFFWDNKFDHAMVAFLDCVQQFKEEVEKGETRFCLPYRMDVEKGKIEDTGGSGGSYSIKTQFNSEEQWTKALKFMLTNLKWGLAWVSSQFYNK
UniProt Q6ZNE5: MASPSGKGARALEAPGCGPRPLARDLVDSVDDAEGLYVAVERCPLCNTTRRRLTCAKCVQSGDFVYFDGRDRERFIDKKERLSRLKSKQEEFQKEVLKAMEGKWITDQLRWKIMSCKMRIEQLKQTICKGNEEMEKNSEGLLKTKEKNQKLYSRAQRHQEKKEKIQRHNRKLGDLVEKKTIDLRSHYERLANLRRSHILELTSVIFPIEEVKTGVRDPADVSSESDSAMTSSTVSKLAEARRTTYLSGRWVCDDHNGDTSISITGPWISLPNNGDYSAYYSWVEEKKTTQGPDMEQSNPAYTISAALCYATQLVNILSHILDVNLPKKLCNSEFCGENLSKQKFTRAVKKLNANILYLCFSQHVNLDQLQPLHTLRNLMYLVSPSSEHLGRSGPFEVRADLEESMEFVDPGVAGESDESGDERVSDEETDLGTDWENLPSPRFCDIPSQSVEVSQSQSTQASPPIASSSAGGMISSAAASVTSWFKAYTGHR

Legend:
[1] = molecular target: CD44 intracellular domain (CD44ICD), 3xFlag (DDK) tagged (human) (UniProt P16070); experiment: co-IP; HUVECs transduced with DDK(3xFlag)-tagged CD44ICD construct; lysis in IP buffer (pH 7.5, 20 mM Tris, 137 mM NaCl, 1% NP-40, 5% glycerol); anti-DDK or IgG overnight at 4 °C, protein A/G agarose; western blot
[2] = molecular target: BD-STAT3 (STAT3 in pGBKT7, two-hybrid bait) (UniProt P40763); experiment: two-hybrid; yeast strain AH109 co-transformed with bait (pGBKT7) and prey (pGADT7); growth on SD-Leu-Trp-Ade-His with X-α-gal

| binding [1] | binding [2] | Substance |
| --- | --- | --- |
| no binding | – | BECN1, endogenous (from UniProt Q14457 1-450) |
| binds | – | STAT3 (signal transducer and activator of transcription 3), endogenous (from UniProt P40763 1-770) |
| no binding | – | autophagy-related protein 14-like protein (Atg14L), endogenous (from UniProt Q6ZNE5 1-492) |
| – | binds | pGADT7-CD44ICD (CD44ICD fused to the Gal4 activation domain, two-hybrid prey) (from UniProt P16070-12) (domain or fragment) |
